# Some of the results follow. Small differences around the control level are noise.
# The chains behind the UniProt entries cited, without tags or fusion partners. Where a name states a change or a piece, a line headed by the entry shows the natural chain unless it says otherwise.
# UniProt Q923B3: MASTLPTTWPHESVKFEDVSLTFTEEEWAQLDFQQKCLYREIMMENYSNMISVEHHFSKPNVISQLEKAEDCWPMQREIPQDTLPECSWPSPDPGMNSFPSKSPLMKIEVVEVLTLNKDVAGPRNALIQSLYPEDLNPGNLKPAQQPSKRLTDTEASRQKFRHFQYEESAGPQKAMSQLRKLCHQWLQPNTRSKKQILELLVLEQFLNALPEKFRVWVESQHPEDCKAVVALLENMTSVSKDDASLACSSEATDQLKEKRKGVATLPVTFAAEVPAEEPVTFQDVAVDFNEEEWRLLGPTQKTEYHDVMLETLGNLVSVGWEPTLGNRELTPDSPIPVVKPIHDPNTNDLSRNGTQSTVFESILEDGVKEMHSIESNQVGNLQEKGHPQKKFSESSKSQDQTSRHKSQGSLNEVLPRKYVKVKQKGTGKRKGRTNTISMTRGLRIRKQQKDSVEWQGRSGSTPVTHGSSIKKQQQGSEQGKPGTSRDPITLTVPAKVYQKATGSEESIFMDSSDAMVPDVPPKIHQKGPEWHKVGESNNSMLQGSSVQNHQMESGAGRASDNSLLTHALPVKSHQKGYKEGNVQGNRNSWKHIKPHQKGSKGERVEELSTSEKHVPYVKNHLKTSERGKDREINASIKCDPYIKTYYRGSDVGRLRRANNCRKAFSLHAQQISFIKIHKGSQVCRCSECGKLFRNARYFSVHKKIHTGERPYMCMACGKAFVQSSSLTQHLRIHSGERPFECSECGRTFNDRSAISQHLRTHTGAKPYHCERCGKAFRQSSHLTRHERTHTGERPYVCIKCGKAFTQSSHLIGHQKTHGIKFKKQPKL
# UniProt Q920A7: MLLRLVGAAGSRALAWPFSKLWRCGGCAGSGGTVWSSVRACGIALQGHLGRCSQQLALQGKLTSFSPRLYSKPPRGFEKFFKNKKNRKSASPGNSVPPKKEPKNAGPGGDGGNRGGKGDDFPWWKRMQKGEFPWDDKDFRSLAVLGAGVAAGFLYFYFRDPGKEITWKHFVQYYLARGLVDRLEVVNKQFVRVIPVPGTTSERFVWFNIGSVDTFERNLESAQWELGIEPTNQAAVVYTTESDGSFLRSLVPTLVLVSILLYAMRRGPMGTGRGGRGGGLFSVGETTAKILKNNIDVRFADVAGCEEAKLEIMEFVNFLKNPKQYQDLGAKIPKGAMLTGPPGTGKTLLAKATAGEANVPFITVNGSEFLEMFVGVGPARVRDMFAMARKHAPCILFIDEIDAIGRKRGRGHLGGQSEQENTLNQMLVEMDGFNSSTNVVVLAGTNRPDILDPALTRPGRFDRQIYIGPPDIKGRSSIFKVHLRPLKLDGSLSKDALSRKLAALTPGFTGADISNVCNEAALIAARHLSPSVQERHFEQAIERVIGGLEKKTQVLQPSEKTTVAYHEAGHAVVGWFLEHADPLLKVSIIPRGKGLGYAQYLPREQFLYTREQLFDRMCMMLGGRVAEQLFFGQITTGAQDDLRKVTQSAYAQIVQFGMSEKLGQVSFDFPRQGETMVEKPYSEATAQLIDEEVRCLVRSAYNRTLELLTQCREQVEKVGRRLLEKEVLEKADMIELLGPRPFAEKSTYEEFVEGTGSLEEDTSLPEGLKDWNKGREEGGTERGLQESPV
# UniProt Q99LD4: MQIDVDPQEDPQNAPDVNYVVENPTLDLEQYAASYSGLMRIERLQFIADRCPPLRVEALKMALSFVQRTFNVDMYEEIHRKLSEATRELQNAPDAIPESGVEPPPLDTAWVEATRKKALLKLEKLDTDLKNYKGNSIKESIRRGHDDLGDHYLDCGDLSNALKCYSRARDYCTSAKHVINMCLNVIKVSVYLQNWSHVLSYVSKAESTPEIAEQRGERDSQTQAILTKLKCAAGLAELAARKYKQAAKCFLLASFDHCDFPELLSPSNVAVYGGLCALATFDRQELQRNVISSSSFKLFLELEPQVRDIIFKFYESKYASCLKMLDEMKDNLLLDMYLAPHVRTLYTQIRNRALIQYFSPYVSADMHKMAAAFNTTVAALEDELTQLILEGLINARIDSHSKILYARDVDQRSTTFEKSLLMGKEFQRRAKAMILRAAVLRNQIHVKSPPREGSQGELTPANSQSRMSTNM
# UniProt Q99LH1: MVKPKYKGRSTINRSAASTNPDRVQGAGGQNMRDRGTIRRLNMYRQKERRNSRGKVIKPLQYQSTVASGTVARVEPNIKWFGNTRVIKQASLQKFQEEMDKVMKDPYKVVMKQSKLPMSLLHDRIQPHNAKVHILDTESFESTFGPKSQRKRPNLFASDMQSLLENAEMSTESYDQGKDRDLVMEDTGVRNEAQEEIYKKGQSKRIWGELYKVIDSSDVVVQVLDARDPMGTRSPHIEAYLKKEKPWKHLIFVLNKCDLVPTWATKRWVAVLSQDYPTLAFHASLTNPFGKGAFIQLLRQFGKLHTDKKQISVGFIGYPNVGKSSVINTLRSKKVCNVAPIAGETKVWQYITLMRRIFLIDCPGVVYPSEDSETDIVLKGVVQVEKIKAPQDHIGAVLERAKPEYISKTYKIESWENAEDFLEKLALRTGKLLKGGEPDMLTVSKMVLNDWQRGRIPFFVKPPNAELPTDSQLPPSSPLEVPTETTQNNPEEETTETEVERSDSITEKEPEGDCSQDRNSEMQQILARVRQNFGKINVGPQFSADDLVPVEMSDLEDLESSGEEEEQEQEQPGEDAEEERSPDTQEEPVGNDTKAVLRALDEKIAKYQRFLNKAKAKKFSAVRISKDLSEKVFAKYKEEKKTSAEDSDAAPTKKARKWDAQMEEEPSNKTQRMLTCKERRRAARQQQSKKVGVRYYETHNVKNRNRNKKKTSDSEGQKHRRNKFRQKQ
# UniProt Q99JH7: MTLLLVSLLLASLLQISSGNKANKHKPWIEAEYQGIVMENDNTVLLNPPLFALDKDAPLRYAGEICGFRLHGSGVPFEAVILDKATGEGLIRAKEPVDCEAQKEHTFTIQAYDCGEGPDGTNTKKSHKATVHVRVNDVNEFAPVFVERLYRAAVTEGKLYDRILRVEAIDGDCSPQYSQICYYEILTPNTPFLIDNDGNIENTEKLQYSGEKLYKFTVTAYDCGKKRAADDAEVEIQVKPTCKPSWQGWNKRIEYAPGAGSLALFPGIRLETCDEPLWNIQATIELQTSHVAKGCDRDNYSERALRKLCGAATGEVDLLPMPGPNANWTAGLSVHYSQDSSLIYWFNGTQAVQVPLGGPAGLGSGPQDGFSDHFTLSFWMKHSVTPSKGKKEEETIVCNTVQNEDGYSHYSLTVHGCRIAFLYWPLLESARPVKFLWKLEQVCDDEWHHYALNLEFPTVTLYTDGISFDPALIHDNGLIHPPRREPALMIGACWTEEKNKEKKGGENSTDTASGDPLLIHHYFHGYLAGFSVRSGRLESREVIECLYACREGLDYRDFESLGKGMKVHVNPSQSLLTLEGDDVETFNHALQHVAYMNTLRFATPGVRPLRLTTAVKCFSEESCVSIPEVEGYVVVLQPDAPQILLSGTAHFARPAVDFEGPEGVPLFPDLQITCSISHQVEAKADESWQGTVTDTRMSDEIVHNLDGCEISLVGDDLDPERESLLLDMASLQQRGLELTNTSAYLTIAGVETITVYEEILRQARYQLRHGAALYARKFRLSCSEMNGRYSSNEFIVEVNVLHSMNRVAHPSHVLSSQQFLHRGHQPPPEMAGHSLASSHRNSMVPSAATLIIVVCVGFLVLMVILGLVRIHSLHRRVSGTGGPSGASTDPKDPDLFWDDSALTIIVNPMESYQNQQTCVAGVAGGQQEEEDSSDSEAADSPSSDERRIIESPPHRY
# UniProt Q923U0: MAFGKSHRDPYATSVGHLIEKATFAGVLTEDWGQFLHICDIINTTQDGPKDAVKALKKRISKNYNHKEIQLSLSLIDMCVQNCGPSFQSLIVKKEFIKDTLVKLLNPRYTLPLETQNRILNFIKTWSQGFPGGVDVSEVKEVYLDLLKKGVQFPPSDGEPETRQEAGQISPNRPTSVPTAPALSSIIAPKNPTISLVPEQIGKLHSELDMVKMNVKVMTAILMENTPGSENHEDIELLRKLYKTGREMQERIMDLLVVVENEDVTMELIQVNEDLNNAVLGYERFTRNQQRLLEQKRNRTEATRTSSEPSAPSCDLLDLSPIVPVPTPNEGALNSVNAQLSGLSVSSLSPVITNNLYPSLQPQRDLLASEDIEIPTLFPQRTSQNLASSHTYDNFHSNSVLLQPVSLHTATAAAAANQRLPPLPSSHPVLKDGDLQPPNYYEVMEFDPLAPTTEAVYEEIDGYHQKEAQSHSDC
# UniProt Q921M7: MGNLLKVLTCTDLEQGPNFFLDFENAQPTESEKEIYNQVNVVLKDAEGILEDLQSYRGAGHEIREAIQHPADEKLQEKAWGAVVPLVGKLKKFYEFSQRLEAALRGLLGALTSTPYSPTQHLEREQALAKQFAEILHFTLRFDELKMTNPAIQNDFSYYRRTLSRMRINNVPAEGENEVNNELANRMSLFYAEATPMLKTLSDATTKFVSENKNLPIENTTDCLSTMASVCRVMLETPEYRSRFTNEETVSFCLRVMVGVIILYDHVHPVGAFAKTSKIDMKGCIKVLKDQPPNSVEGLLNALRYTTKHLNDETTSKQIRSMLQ
# UniProt Q922M7: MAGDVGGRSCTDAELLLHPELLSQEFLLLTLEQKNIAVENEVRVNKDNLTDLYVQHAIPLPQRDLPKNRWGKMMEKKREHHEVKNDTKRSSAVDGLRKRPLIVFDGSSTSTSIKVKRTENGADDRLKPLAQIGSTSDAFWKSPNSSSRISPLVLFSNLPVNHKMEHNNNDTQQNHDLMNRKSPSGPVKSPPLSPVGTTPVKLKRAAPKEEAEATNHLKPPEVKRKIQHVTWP
# UniProt Q920A5: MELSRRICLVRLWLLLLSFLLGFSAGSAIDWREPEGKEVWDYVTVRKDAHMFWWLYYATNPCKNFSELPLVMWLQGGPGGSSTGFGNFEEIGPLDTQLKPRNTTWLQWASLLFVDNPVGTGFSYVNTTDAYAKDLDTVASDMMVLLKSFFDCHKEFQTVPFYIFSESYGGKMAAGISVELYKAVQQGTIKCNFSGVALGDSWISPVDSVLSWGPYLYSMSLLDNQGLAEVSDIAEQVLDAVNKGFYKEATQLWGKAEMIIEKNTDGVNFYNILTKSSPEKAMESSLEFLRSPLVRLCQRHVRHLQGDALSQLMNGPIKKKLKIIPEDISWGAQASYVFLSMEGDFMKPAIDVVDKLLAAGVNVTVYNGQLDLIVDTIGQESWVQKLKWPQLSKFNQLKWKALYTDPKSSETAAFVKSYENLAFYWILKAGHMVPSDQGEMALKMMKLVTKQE
# UniProt Q99KJ0: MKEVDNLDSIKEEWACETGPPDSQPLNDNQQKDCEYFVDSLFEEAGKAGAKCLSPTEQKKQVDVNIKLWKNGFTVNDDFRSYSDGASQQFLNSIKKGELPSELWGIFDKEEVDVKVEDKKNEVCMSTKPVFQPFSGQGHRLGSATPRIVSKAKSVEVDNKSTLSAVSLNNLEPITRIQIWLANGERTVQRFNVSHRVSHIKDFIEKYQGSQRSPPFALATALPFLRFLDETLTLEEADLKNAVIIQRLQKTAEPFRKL
# UniProt Q920B9, whole entry: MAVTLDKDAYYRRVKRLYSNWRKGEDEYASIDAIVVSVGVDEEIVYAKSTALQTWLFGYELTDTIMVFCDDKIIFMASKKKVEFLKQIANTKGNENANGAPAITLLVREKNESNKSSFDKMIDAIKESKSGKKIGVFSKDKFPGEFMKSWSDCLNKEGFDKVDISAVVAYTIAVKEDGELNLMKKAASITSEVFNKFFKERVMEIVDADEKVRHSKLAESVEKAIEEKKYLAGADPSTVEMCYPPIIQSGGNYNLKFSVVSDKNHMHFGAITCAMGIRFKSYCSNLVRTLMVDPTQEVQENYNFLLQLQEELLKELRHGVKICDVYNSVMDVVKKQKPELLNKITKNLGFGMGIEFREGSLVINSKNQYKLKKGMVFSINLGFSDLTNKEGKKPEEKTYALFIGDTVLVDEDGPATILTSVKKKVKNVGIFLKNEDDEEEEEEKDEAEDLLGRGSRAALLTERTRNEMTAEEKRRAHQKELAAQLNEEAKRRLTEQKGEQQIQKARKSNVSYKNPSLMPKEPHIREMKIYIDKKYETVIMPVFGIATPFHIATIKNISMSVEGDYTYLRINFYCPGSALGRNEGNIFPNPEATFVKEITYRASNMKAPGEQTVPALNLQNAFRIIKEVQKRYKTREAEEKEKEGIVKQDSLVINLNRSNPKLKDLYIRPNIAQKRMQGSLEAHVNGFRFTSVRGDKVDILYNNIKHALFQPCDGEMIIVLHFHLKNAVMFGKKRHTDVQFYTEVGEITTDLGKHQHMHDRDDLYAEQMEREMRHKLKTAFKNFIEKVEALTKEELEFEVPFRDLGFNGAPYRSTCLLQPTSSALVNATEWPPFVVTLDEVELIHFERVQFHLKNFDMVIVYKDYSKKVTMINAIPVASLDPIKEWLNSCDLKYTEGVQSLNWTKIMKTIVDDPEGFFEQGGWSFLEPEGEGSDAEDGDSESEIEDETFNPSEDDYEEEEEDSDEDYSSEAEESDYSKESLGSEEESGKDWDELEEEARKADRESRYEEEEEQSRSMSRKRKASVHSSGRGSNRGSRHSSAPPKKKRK
# Compound: CN[C@@H]1C[C@H]2O[C@@](C)([C@@H]1OC)n1c3ccccc3c3c4c(c5c6ccccc6n2c5c31)C(=O)NC4 [staurosporine]
# Assay: log2 fold change of tryptic peptide abundance, ligand vs vehicle (limited proteolysis) (log2 ratio); higher = more trypsin-susceptible (destabilized)
# Conditions: ligand concentration: 20 uM; sample: mouse liver crude lysate; replicate design: treated separately
row,Target,log2 fold change
1,"UniProt Q99JW2 (peptide sequence: LQANPHLK, peptide start residue: 237)",-0.137
2,"UniProt Q923B3 (peptide sequence: VEELSTSEK, peptide start residue: 605)",-0.106
3,"UniProt Q920A7 (peptide sequence: LLEKEVLEK, peptide start residue: 722)",0.502
4,"UniProt Q99LD4 (peptide sequence: MALSFVQR, peptide start residue: 61)",-0.262
5,"UniProt Q99LH1 (peptide sequence: KWDAQMEEEPSNK, peptide start residue: 657)",-0.654
6,"UniProt Q99JH7 (peptide sequence: AAVTEGK, peptide start residue: 152)",0.453
7,"UniProt Q921C3 (peptide sequence: VVVPEAPPGMFR, peptide start residue: 742)",-0.387
8,"UniProt Q921N6 (peptide sequence: SQFEILK, peptide start residue: 666)",-0.137
9,"UniProt Q923U0 (peptide sequence: EVYLDLLKK, peptide start residue: 141)",-0.43
10,"UniProt Q99JP4 (peptide sequence: LDDIEEFESIRK, peptide start residue: 13)",-0.22
11,"UniProt Q921M7 (peptide sequence: FYEFSQR, peptide start residue: 93)",0.284
12,"UniProt Q99LE6 (peptide sequence: TRLELEENQMKR, peptide start residue: 321)",-0.554
13,"UniProt Q922M7 (peptide sequence: LKPLAQIGSTSDAFWK, peptide start residue: 126)",0.162
14,"UniProt Q99J99 (peptide sequence: AQPEHIISEGR, peptide start residue: 283)",0.0791
15,"UniProt Q99J87 (peptide sequence: RYNDALFIHDTVR, peptide start residue: 286)",-0.56
16,"UniProt Q920A5 (peptide sequence: EATQLWGK, peptide start residue: 248)",-0.0988
17,"UniProt Q923W1 (peptide sequence: YLDEMVR, peptide start residue: 131)",0.135
18,"UniProt Q922V4 (peptide sequence: HSVHTLVFR, peptide start residue: 8)",0.271
19,"UniProt Q922Q9 (peptide sequence: TQFSDKPVQDR, peptide start residue: 38)",-0.14
20,"UniProt Q922Q4 (peptide sequence: CMTNTPVVVR, peptide start residue: 120)",-0.527
21,"UniProt Q99KJ0 (peptide sequence: KNEVCMSTKPVFQPFSGQGHR, peptide start residue: 120)",0.312
22,"UniProt Q99J36 (peptide sequence: SQFLPAKR, peptide start residue: 20)",0.0197
23,"UniProt Q91ZW2 (peptide sequence: DGTAGSHFMASPQCVGYSR, peptide start residue: 259)",0.314
24,"UniProt Q99K41 (peptide sequence: QQQLVGPAMAR, peptide start residue: 338)",-0.176
25,"UniProt Q922Q8 (peptide sequence: LEVEREAEK, peptide start residue: 163)",-0.185
26,"UniProt Q99LI7 (peptide sequence: ETALLVDR, peptide start residue: 520)",-0.244
27,"UniProt Q920B9 (peptide sequence: INFYCPGSALGR, peptide start residue: 570)",-0.276
28,"UniProt Q99J47 (peptide sequence: TLAPGLFFR, peptide start residue: 300)",0.688
29,"UniProt Q99JI4 (peptide sequence: PLENLEEEGLPKNPDLR, peptide start residue: 2)",-0.498
